This is an account of results in paper PMC10500059, “Allosteric activation of RhlB by RNase E induces partial duplex opening in substrate RNA” (Frontiers in Molecular Biosciences, 2023).

For at least one entry, the source does not settle the construct or the ends of the probe. For some of these results: A negative result means that nothing was seen under these conditions. For some of these results: Protein sequences can lack the tags named with them.

Data set [1] concerns the target T1, RhlB (Escherichia coli) (UniProt P0A8J8).
T1 sequence (looked up, limits assumed): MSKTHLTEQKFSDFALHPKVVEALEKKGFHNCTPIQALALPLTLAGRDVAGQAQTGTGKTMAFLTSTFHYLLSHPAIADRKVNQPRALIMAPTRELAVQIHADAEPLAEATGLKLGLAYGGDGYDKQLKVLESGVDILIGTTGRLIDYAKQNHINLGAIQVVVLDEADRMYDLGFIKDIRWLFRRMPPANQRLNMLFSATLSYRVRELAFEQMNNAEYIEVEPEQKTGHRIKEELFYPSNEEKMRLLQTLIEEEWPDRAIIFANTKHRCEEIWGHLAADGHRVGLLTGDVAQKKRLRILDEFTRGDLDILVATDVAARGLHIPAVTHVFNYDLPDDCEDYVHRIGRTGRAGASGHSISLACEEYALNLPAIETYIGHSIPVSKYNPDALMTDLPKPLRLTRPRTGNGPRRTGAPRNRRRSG
The data set can be described thus: NMR (13C HSQC titration). Particulars: no ATP, uniform intensity loss, no shift changes; NMR: 150 mM KCl, 25 mM Tris/HCl, 5 mM DTT, 4.5 mM MgCl2, pH 8.3, 288 K, 100 µM RNA; recombinant protein; label: none (1H titration), 21 nt strand 13C,15N for HSQC; letters put together from the description.

For data set [2], the system named is RhlB + RNase E (694-790). The data set can be described thus: NMR (13C HSQC titration). Particulars: no ATP, nt U16-U21 of 21 nt strand become unpaired; NMR: 150 mM KCl, 25 mM Tris/HCl, 5 mM DTT, 4.5 mM MgCl2, pH 8.3, 288 K, 100 µM RNA; recombinant protein; label: none (1H titration), 21 nt strand 13C,15N for HSQC; letters put together from the description.
For data set [3], the target named is T2, RNase E (628-843) (Escherichia coli) (UniProt P21513).
T2 sequence (looked up): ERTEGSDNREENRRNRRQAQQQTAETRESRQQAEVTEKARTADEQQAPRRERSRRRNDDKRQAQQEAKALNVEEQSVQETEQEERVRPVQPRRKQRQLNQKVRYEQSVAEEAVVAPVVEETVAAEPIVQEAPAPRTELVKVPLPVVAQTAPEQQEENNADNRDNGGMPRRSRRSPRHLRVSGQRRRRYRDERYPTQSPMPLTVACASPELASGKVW
The data set can be described thus: NMR (1H imino titration). Particulars: 4.5 mM Mg2+; NMR: 150 mM KCl, 25 mM Tris/HCl, 5 mM DTT, 4.5 mM MgCl2, pH 8.3, 288 K, 100 µM RNA; recombinant protein; residues 628-843; protein details: N-terminal 6xHis-TEV, tag cleaved; label: none (1H titration), 21 nt strand 13C,15N for HSQC; letters put together from the description.

In data set [4] the target is T3, RNase E (694-790) (Escherichia coli) (UniProt P21513).
T3 sequence (looked up): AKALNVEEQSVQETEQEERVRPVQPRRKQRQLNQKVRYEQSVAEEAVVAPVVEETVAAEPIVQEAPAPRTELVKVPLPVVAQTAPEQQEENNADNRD
The data set can be described thus: NMR (1H imino titration). Particulars: 4.5 mM Mg2+; NMR: 150 mM KCl, 25 mM Tris/HCl, 5 mM DTT, 4.5 mM MgCl2, pH 8.3, 288 K, 100 µM RNA; recombinant protein; residues 694-790; label: none (1H titration), 21 nt strand 13C,15N for HSQC; letters put together from the description.

In data set [5] the target is T1, RhlB (Escherichia coli). The data set can be described thus: NMR (1H imino titration). Particulars: no ATP, 4.5 mM Mg2+; NMR: 150 mM KCl, 25 mM Tris/HCl, 5 mM DTT, 4.5 mM MgCl2, pH 8.3, 288 K, 100 µM RNA; recombinant protein; label: none (1H titration), 21 nt strand 13C,15N for HSQC; letters put together from the description.
The subject of another data set is RhlB + RNase E (628-843). The data set can be described thus: NMR (1H imino titration). Particulars: no ATP, 4.5 mM Mg2+; NMR: 150 mM KCl, 25 mM Tris/HCl, 5 mM DTT, 4.5 mM MgCl2, pH 8.3, 288 K, 100 µM RNA; recombinant protein; label: none (1H titration), 21 nt strand 13C,15N for HSQC; letters put together from the description.
The subject of data set [6] is RhlB + RNase E (694-790). The data set can be described thus: NMR (1H imino titration). Particulars: no ATP, 4.5 mM Mg2+; NMR: 150 mM KCl, 25 mM Tris/HCl, 5 mM DTT, 4.5 mM MgCl2, pH 8.3, 288 K, 100 µM RNA; recombinant protein; label: none (1H titration), 21 nt strand 13C,15N for HSQC; letters put together from the description.

In general, Kd refers to the constant that tells how readily two partners part at equilibrium. For “UAGUAACUAAAACAUUAAAUU / AAUUUAAUGUUUU [5'-OV duplex]”, the binding result was “binds” with RhlB (Escherichia coli) [1], “binds” with RhlB + RNase E (694-790) [2] and “no binding” in data set [4]. Moreover, the Kd was found to be 163 µM in data set [3], 46.6 µM with RhlB (Escherichia coli) [5], 5.1 µM with RhlB + RNase E (628-843) and 14.5 µM in the data set with RhlB + RNase E (694-790) [6].
